The values that follow come from publication PMC8959600 (eLife, 2022).

One series deals with S. flexneri 2457T. As to the kind of experiment: Gnotobiotic piglet Shigella infection model, efficacy. In kind it is in vivo. The settings on record: infected gnotobiotic piglets, 50 mg/kg oral, p < 0.001 for AUC of score plots.
The conditions of series [1]: paediatric population, Tebipenem-Pivoxil PO; ref Sato et al., 2008; cited from earlier work.

For orientation: Cmax means the peak of the concentration-time curve. Broadly, the Tmax is the time at which the peak concentration occurs.

`C[C@@H](O)[C@H]1C(=O)N2C(C(=O)OCOC(=O)C(C)(C)C)=C(SC3CN(C4=NCCS4)C3)[C@H](C)[C@H]12` [Tebipenem pivoxil]: the “severity of diarrhoea and frequency of diarrheal stools vs control animals” value in the series on S. flexneri 2457T was “significantly reduced”. In series [1], the AUC0-tlast was 16100 ± 3300 ng·h/mL, the Cmax is 7500 ± 3900 ng/mL and the Tmax is 42 ± 12 min.
